Some of the results follow.
These targets were tested with COc1cc2ncnc(Nc3ccc(F)c(Cl)c3)c2cc1OCCCN1CCOCC1 [gefitinib] (assay: log2 fold change, soluble protein after heating vs DMSO (PISA); higher = thermal stabilisation; K562 lysate, 10 uM; active = over 0.2 and 3.5 SD of the protein, either way, in both replicates (recomputed)).
Outline: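 A 30 min treatment with 10 μM compound was applied to crude K562 extract at 1 mg/mL protein in PBS pH 7.4 with 1 mM MgCl2. Heating for 3 min spanned 48°C-58°C, after which aliquots were pooled, adjusted to 0.5% NP-40 at 4°C and spun at 21,000xg for 90 min. TMTpro 16plex LC-MS/MS of the supernatant, with channel sums equalised, gave values recorded as log-two fold change in thermal stability against solvent controls, from duplicates.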

Amino acid sequences for entries named in this document (tags omitted). A change or cut given only in a name is not applied to a line headed by its entry.
UniProt Q5T3F8: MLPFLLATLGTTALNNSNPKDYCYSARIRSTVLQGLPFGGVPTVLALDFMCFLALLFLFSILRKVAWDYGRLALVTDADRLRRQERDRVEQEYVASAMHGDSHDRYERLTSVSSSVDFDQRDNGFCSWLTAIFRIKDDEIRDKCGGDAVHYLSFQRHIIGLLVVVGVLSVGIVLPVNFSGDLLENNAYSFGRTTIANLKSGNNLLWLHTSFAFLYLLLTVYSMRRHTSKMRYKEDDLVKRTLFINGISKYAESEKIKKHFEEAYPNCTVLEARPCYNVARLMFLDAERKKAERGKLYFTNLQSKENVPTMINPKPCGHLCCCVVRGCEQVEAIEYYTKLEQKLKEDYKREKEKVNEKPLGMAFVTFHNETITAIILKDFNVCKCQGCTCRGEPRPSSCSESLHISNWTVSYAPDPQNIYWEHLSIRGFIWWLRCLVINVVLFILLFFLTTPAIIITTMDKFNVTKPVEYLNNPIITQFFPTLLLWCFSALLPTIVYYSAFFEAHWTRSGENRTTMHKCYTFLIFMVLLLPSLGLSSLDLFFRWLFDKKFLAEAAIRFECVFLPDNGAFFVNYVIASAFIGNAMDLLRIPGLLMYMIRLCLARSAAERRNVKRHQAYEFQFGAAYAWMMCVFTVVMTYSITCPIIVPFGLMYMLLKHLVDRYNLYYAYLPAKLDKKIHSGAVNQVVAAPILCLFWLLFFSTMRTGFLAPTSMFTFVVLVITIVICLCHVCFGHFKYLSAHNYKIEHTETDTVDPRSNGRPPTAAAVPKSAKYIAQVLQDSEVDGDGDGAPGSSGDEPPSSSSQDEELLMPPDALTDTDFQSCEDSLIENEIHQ
UniProt Q9UKE5: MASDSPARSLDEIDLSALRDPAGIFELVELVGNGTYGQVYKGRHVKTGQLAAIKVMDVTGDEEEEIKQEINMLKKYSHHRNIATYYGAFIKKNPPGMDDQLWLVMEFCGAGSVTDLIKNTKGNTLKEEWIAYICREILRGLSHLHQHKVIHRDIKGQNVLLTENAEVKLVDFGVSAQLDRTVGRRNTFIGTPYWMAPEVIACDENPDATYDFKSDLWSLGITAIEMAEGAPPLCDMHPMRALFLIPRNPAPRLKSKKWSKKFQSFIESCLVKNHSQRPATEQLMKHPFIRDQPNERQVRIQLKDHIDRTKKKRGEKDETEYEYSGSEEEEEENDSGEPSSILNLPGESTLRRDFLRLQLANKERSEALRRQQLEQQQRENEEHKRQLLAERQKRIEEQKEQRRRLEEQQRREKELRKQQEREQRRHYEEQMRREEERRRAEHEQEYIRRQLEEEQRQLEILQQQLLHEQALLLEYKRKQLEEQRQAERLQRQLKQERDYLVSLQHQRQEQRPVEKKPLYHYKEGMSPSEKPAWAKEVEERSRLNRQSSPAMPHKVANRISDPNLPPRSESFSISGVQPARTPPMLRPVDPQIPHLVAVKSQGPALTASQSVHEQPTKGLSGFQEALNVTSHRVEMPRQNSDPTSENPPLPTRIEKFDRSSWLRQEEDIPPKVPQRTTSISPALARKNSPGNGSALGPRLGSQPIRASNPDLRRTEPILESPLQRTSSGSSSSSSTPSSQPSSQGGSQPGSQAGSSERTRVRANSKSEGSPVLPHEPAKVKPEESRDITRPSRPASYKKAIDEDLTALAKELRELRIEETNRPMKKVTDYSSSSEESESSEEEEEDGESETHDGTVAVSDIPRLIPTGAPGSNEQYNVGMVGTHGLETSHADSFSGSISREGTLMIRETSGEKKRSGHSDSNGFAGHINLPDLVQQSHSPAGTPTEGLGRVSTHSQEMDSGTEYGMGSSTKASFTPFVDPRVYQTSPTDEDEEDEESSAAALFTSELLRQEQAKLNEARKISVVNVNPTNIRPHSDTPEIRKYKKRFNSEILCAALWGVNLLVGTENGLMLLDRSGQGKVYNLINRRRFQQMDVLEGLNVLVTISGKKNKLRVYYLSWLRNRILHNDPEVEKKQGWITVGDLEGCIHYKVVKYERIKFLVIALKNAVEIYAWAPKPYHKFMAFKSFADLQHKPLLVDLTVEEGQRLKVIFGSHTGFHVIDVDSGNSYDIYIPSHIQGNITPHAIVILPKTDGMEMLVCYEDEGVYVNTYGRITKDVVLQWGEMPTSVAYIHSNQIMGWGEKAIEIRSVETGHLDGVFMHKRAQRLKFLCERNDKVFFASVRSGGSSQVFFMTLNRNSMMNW
UniProt O43399: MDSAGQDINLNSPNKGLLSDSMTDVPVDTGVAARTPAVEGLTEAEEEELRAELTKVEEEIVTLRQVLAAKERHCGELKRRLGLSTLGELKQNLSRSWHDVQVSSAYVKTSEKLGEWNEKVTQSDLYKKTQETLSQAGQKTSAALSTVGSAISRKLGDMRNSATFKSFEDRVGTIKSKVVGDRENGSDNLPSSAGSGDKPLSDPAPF
UniProt Q9NS69: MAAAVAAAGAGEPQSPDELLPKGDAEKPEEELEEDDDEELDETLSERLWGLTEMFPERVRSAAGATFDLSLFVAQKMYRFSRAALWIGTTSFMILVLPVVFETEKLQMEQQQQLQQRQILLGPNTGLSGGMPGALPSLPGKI
UniProt O60784, whole entry, looked up: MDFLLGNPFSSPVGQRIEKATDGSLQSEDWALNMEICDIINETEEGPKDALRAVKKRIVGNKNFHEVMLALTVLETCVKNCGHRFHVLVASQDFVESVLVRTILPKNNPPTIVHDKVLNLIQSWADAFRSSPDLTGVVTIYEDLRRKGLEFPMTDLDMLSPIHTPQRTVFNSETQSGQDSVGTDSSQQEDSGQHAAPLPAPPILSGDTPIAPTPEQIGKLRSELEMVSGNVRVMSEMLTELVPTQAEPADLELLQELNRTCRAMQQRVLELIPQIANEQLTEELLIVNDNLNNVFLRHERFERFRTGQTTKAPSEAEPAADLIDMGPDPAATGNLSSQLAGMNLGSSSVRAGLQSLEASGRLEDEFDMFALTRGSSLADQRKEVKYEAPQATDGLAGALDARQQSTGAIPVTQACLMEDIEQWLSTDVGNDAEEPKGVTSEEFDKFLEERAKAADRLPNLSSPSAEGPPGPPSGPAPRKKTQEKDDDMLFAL
UniProt Q5BJF2, whole entry, looked up: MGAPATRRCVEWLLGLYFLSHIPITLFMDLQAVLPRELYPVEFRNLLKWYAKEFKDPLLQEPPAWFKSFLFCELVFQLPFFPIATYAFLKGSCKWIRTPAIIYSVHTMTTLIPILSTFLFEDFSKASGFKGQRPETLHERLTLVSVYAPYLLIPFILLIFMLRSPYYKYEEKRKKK
UniProt Q15025: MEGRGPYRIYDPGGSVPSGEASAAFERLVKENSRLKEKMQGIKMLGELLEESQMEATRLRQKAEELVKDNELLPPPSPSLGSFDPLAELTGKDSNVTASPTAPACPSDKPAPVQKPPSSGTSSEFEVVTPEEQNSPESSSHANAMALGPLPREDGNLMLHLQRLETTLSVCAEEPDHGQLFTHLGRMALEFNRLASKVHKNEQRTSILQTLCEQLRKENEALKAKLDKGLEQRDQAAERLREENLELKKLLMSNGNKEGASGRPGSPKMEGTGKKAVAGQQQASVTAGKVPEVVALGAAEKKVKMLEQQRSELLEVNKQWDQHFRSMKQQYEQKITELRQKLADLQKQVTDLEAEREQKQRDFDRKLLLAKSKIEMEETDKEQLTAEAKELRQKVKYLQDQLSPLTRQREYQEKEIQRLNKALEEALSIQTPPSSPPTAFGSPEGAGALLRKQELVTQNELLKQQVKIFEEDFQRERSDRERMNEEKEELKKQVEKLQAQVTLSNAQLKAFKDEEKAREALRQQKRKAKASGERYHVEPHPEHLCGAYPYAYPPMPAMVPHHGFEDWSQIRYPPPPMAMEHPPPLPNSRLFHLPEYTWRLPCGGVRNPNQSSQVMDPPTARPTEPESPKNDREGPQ
UniProt O94826, whole entry, looked up: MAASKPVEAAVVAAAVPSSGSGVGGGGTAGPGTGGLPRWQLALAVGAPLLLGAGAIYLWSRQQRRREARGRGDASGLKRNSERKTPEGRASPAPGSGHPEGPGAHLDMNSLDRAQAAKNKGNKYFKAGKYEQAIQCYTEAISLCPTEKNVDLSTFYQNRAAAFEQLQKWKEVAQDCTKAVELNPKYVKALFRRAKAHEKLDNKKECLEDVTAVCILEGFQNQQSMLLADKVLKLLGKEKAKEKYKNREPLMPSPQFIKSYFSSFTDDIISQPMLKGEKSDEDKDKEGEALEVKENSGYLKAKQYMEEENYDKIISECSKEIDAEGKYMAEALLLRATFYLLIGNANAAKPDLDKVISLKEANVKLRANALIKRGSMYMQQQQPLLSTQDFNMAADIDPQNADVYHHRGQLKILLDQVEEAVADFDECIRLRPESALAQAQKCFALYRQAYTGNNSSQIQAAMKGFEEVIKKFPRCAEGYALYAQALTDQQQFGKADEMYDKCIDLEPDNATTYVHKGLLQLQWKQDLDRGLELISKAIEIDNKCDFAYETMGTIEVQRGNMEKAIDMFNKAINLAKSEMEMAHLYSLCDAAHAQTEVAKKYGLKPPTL
UniProt P60174, whole entry, looked up: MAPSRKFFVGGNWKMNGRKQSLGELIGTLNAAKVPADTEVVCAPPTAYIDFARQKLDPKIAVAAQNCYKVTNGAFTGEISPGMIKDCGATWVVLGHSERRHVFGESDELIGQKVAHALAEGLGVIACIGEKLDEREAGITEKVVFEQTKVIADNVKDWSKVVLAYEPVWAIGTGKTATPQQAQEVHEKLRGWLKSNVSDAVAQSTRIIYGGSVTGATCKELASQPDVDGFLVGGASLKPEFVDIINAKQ
UniProt P20333, whole entry, looked up: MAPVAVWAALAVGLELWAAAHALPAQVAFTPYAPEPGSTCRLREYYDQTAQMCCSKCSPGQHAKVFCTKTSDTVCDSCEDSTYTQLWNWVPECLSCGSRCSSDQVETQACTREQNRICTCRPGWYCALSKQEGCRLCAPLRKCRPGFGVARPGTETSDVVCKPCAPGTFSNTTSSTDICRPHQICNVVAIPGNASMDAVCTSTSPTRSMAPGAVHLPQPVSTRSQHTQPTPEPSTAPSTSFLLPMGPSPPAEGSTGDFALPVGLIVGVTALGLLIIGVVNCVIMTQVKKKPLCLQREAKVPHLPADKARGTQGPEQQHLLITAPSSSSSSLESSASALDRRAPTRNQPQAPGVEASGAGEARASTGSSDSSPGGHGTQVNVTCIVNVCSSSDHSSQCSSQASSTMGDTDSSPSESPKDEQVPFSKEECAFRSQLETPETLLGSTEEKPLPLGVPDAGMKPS
UniProt Q96HA7: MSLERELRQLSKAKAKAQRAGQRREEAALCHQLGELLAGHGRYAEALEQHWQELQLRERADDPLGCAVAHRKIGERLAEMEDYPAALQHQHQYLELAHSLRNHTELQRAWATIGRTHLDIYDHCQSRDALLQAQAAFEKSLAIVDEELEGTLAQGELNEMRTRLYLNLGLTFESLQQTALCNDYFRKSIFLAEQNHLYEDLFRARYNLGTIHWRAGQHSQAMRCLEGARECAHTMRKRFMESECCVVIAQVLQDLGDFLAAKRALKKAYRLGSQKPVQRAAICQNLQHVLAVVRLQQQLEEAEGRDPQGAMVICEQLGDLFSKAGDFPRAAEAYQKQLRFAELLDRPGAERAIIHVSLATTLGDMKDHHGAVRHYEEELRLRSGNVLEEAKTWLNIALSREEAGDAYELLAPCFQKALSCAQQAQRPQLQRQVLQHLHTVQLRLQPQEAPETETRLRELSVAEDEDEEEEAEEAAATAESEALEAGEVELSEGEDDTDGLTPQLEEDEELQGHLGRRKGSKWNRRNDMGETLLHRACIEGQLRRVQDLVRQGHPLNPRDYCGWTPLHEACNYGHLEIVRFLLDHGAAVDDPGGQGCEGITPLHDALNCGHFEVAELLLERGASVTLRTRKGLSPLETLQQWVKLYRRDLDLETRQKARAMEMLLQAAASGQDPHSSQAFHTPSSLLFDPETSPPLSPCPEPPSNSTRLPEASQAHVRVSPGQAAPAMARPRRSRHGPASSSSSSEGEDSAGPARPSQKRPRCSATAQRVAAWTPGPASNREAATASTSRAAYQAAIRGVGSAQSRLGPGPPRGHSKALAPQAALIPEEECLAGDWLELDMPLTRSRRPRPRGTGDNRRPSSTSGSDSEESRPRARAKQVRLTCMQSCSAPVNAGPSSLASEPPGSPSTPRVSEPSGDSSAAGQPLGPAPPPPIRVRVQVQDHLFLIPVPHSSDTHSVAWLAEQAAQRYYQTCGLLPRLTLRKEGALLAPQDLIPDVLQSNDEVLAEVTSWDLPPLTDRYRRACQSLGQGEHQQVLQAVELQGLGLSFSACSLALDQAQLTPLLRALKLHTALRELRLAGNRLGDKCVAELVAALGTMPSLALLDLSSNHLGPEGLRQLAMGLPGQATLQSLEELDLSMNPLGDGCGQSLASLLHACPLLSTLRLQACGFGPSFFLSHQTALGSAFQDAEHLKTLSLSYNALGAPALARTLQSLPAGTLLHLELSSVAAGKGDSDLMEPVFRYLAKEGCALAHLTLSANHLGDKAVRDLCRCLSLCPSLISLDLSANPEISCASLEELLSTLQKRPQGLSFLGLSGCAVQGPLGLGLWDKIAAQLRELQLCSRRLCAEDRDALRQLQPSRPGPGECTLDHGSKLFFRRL

log2 fold change, inactive:
TMX3 (UniProt Q96JJ7) 0.029
TOR3A (UniProt Q9H497) 0.018
TMEM63B (UniProt Q5T3F8) 0.055
TPP2 (UniProt P29144) 0.008
TPP1 (UniProt O14773) -0.002
TNIK isoform 4 (UniProt Q9UKE5) -0.005
TPD52L2 isoform 7 (UniProt O43399) 0.02
TMEM38B (UniProt Q9NVV0) -0.016
TRA2A (UniProt Q13595) 0.118
TOMM22 (UniProt Q9NS69) -0.033
TPM1 isoform 4 (UniProt P09493) 0.008
TOM1 isoform 2 (UniProt O60784) -0.065
TMOD3 (UniProt Q9NYL9) 0.021
TMEM97 (UniProt Q5BJF2) -0.017
TMEM68 (UniProt Q96MH6) 0.017
TPM3 isoform 2 (UniProt P06753) 0.059
TPX2 (UniProt Q9ULW0) 0.012
TOP1 (UniProt P11387) 0
TNIP1 (UniProt Q15025) 0.045
TOMM70 (UniProt O94826) 0.034
TMEM219 (UniProt Q86XT9) 0.128
TPMT (UniProt P51580) 0.005
TP53I3 (UniProt Q53FA7) 0.019
TPST2 (UniProt O60704) 0.072
TOP2B isoform 2 (UniProt Q02880) -0.006
TPM3 (UniProt P06753) 0.008
TPM4 isoform 2 (UniProt P67936) -0.004
TPI1 (UniProt P60174) -0.004
TMEM87B (UniProt Q96K49) 0.018
TNFRSF1B (UniProt P20333) 0.075
TMEM245 (UniProt Q9H330) 0.083
TONSL (UniProt Q96HA7) -0.017
TMOD1 (UniProt P28289) -0.008

2 records drawn at random from the list so far:
log2 fold change, inactive:
TMOD1 (UniProt P28289) -0.008
TOM1 isoform 2 (UniProt O60784) -0.065

Reference: the supplement of paper PMC10849652
